Experimental data reported in the supplement of paper PMC4604168 (melanoma cell lines).
This is one part of the list. Repeats are few or missing, and single values can be far off.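 Imaging used 1,536-well plates; nuclei positive for cleaved PARP by antibody were divided by total DNA-stained nuclei to yield the apoptosis fraction. Doses for screening kept most cells viable, and cell lines differ markedly in resting and induced cleaved-PARP levels.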

Columns and labels:
Test in all cases: cleaved PARP positive nuclei fraction relative to DMSO control; melanoma cells; higher = more apoptosis
Settings in all cases: library dose: low library concentration; 72 h
MZ2-MEL = tested on: MZ2-MEL
MeWo = tested on: MeWo
RPMI7951 = tested on: RPMI7951
RVH-421 = tested on: RVH-421
SkMel28 = tested on: SkMel28
SkMel2 = tested on: SkMel2
SkMel30 = tested on: SkMel30
SkMel5 = tested on: SkMel5
UACC257 = tested on: UACC257
UACC62 = tested on: UACC62
WM115 = tested on: WM115
WM1716 = tested on: WM1716
WM1745 = tested on: WM1745
WM3526 = tested on: WM3526
WM3619 = tested on: WM3619
WM451Lu = tested on: WM451Lu

Compound	cleaved PARP positive nuclei fraction (MZ2-MEL) [%]	cleaved PARP positive nuclei fraction (MeWo) [%]	cleaved PARP positive nuclei fraction (RPMI7951) [%]	cleaved PARP positive nuclei fraction (RVH-421) [%]	cleaved PARP positive nuclei fraction (SkMel28) [%]	cleaved PARP positive nuclei fraction (SkMel2) [%]	cleaved PARP positive nuclei fraction (SkMel30) [%]	cleaved PARP positive nuclei fraction (SkMel5) [%]	cleaved PARP positive nuclei fraction (UACC257) [%]	cleaved PARP positive nuclei fraction (UACC62) [%]	cleaved PARP positive nuclei fraction (WM115) [%]	cleaved PARP positive nuclei fraction (WM1716) [%]	cleaved PARP positive nuclei fraction (WM1745) [%]	cleaved PARP positive nuclei fraction (WM3526) [%]	cleaved PARP positive nuclei fraction (WM3619) [%]	cleaved PARP positive nuclei fraction (WM451Lu) [%]
CCCCCCCCCCCCCCCCCCOP(=O)([O-])OC1CC[N+](C)(C)CC1 [Perifosine] + COC(=O)c1sccc1S(=O)(=O)Nc1ccc(Nc2ccccc2)cc1OC [GSK0660] (first compound 0.4 µM, partner dose 1 µM)	98.1	247	74.2	144	232	59.2	112	162	184	108	48.7	100	90.6	73.3	88	132
O=C(/C=C/c1cccnc1)NCCCCC1CCN(C(=O)c2ccccc2)CC1 + NC(=O)Nc1cc(-c2cccc(F)c2)sc1C(=O)N[C@H]1CCCNC1 [AZD7762] (first compound 0.01 µM, partner dose 0.02 µM)	524	82	156	107	62.5	880	64.2	137	33.4	23.4	273	63	107	221	199	50.1
Cc1cc(Nc2cc(N3CCN(C)CC3)nc(Sc3ccc(NC(=O)C4CC4)cc3)n2)n[nH]1 [Tozasertib] + COc1cc(Nc2ncc(F)c(Nc3ccc4c(n3)NC(=O)C(C)(C)O4)n2)cc(OC)c1OC [Tamatinib] (first compound 0.006 µM, partner dose 0.4 µM)	249	115	112	103	97.1	84.1	101	85	77.2	48	104	42.8	226	63.3	231	94.3
O=C(Nc1cc(C(F)(F)F)cc(C(F)(F)F)c1)c1cc(Cl)ccc1O + c1cc(-c2cnn3cc(-c4ccc(OCCN5CCCCC5)cc4)cnc23)ccn1 [Dorsomorphin] (first compound 0.016 µM, partner dose 0.4 µM)	85.2	73.7	70.3	92.7	140	68.7	113	79.5	80.2	94.7	160	41.1	113	57.3	84.1	62.4
CCCCCCCCCCCCCCCCCCOP(=O)([O-])OC1CC[N+](C)(C)CC1 [Perifosine] + COc1ccc(-c2ccc3c(N4CCOCC4)nc(N4C[C@@H](C)O[C@@H](C)C4)nc3n2)cc1CO [KU0063794] (first compound 0.4 µM, partner dose 0.02 µM)	148	28.4	57	63.6	145	78.7	40.3	84.1	206	128	114	217	90.5	163	108	146
O=C(/C=C/c1cccnc1)NCCCCC1CCN(C(=O)c2ccccc2)CC1 + CCCCCCCCCCCC1=C(O)C(=O)C=C(O)C1=O [Embelin] (first compound 0.01 µM, partner dose 1.2 µM)	203	141	107	76	37.7	235	38.6	157	81.5	64.7	275	109	76	67.4	105	205
CC[C@]1(O)C[C@H]2CN(CCc3c([nH]c4ccccc34)[C@@](C(=O)OC)(c3cc4c(cc3OC)N(C=O)[C@H]3[C@@](O)(C(=O)OC)[C@H](OC(C)=O)[C@]5(CC)C=CCN6CC[C@]43[C@@H]65)C2)C1 [vincristine] + COc1cc(N2CCC(N3CCN(C)CC3)CC2)ccc1Nc1ncc(Cl)c(Nc2ccccc2S(=O)(=O)C(C)C)n1 [NVP-TAE684] (first compound 0.0001 µM, partner dose 0.08 µM)	74.6	214	139	108	252	92.7	210	101	418	582	1240	152	109	115	164	267
N#CC[C@H](C1CCCC1)n1cc(-c2ncnc3[nH]ccc23)cn1 [ruxolitinib] + COc1ccc2c(c1)CCC1C2CCC2(C)C(NCCCCCCN3C(=O)C=CC3=O)CCC12 [U73122] (first compound 1 µM, partner dose 0.4 µM)	160	292	137	117	61.9	61.1	63.8	210	147	62.4	103	61.6	90.8	59	98.6	65.8
Cc1ccc(Nc2nccc(N(C)c3ccc4c(C)n(C)nc4c3)n2)cc1S(N)(=O)=O [Pazopanib] + COc1ccc(COc2ccc(Cc3cnc(N)nc3N)cc2OC)cc1 [GW2580] (first compound 0.4 µM, partner dose 1 µM)	65.9	87.8	413	44.4	102	138	128	108	132	84.7	87.3	124	93.2	192	97.3	103
CCCCCCCCCCCCCCCCCCOP(=O)([O-])OC1CC[N+](C)(C)CC1 [Perifosine] + Cc1cc(N2CCOCC2)cc2[nH]c(-c3c(NC[C@@H](O)c4cccc(Cl)c4)cc[nH]c3=O)nc12 [BMS536924] (first compound 0.4 µM, partner dose 0.2 µM)	82.1	44.5	216	45	408	107	264	36.1	72	105	28.2	105	141	178	104	157
CCCCCCCCCCCCCCCCCCOP(=O)([O-])OC1CC[N+](C)(C)CC1 [Perifosine] + NCC(=O)Nc1ccc(-n2nc(C(F)(F)F)cc2-c2ccc3c(ccc4ccccc43)c2)cc1 [OSU03012] (first compound 0.4 µM, partner dose 1 µM)	252	145	135	201	74	163	605	79.3	46.6	52	79	132	76.2	372	83.2	875
COc1cc([C@@H]2c3cc4c(cc3[C@@H](O[C@@H]3O[C@@H]5CO[C@@H](C)O[C@H]5[C@H](O)[C@H]3O)[C@H]3COC(=O)[C@H]23)OCO4)cc(OC)c1O [etoposide] + CC(C)(C)c1cnc(CSc2cnc(NC(=O)C3CCNCC3)s2)o1 [SNS-032] (first compound 0.02 µM, partner dose 0.01 µM)	188	66.2	157	36.7	65.2	99.6	64.7	52	120	46.3	141	97.1	102	53.3	108	62.3
O=c1[nH]nc(Sc2ncc([N+](=O)[O-])s2)n1-c1ccc2c(c1)OCCO2 + O=C(O)c1ccc(-c2c[nH]c3ncc(-c4ccccc4)cc23)cc1C1CCCC1 [GSK650394] (first compound 0.2 µM, partner dose 0.16 µM)	130	34.3	79.2	77.6	80.4	68.2	61.2	66.7	69.8	200	60.3	51.6	95	56.4	112	108
Cc1ccc(Nc2nccc(N(C)c3ccc4c(C)n(C)nc4c3)n2)cc1S(N)(=O)=O [Pazopanib] + O=C(CCCCCCC(=O)Nc1ccccc1)NO [vorinostat] (first compound 0.4 µM, partner dose 0.08 µM)	27.6	34.7	97.5	20.1	144	51.6	82.9	74.1	103	77.2	102	126	102	124	92.3	265
Cc1cc(Nc2cc(N3CCN(C)CC3)nc(Sc3ccc(NC(=O)C4CC4)cc3)n2)n[nH]1 [Tozasertib] + COc1cc2ncnc(Nc3ccc(Oc4ccccc4)cc3)c2cc1OC [SrcI1] (first compound 0.006 µM, partner dose 2 µM)	232	114	54.1	44.7	241	28.7	93.5	81.4	199	115	66.2	108	127	99.8	101	83.7
Cc1cc(Nc2cc(N3CCN(C)CC3)nc(Sc3ccc(NC(=O)C4CC4)cc3)n2)n[nH]1 [Tozasertib] + O=C1NC(=O)/C(=C/c2ccc(-c3ccc(F)cc3O)o2)S1 [AS252424] (first compound 0.006 µM, partner dose 1 µM)	175	258	28.3	116	51.7	44.6	76.4	149	150	109	107	164	106	90.7	117	219
O=C(/C=C/c1cccnc1)NCCCCC1CCN(C(=O)c2ccccc2)CC1 + O=c1cc(-c2cccc3c2Sc2ccccc2S3)oc(N2CCOCC2)c1 [KU55933] (first compound 0.01 µM, partner dose 1 µM)	398	78.5	76.4	151	117	366	80.4	40.9	146	78.2	242	305	104	40.4	114	39.5

2 entries picked at random from the list so far:
Compound	cleaved PARP positive nuclei fraction (MZ2-MEL) [%]	cleaved PARP positive nuclei fraction (MeWo) [%]	cleaved PARP positive nuclei fraction (RPMI7951) [%]	cleaved PARP positive nuclei fraction (RVH-421) [%]	cleaved PARP positive nuclei fraction (SkMel28) [%]	cleaved PARP positive nuclei fraction (SkMel2) [%]	cleaved PARP positive nuclei fraction (SkMel30) [%]	cleaved PARP positive nuclei fraction (SkMel5) [%]	cleaved PARP positive nuclei fraction (UACC257) [%]	cleaved PARP positive nuclei fraction (UACC62) [%]	cleaved PARP positive nuclei fraction (WM115) [%]	cleaved PARP positive nuclei fraction (WM1716) [%]	cleaved PARP positive nuclei fraction (WM1745) [%]	cleaved PARP positive nuclei fraction (WM3526) [%]	cleaved PARP positive nuclei fraction (WM3619) [%]	cleaved PARP positive nuclei fraction (WM451Lu) [%]
COc1cc([C@@H]2c3cc4c(cc3[C@@H](O[C@@H]3O[C@@H]5CO[C@@H](C)O[C@H]5[C@H](O)[C@H]3O)[C@H]3COC(=O)[C@H]23)OCO4)cc(OC)c1O [etoposide] + CC(C)(C)c1cnc(CSc2cnc(NC(=O)C3CCNCC3)s2)o1 [SNS-032] (first compound 0.02 µM, partner dose 0.01 µM)	188	66.2	157	36.7	65.2	99.6	64.7	52	120	46.3	141	97.1	102	53.3	108	62.3
Cc1cc(Nc2cc(N3CCN(C)CC3)nc(Sc3ccc(NC(=O)C4CC4)cc3)n2)n[nH]1 [Tozasertib] + COc1cc(Nc2ncc(F)c(Nc3ccc4c(n3)NC(=O)C(C)(C)O4)n2)cc(OC)c1OC [Tamatinib] (first compound 0.006 µM, partner dose 0.4 µM)	249	115	112	103	97.1	84.1	101	85	77.2	48	104	42.8	226	63.3	231	94.3
